According to patent US8309611B2, “Methods and compositions for treating lung cancer” (Golden Biotechnology Corporation, priority 2011, dated 2012):
Entries after “also recorded” stand apart in the source; their conditions may differ. At least one structure is not confirmed: it was looked up by name or label, or the drawing left a doubt.

Columns and labels:
CL1-5 [1] = test: In vitro cancer cell invasion assay (MICS); assay type: cell-based, human; details: 0.1, 0.3 or 1 μg/ml, 18 hours
A549-eGFP cells = test: Animal tumorigenesis, subcutaneous A549-eGFP tumors; assay type: in vivo; details: SCID mice, 30 mg/Kg and 60 mg/kg for 7-14 days
[2] = test system: non-small cell lung cancer; test: Clinical study in non-small cell lung carcinoma; assay type: in vivo, human; details: 100 mg capsule bid x 28 day cycles
DMS 114 = test: MTT cell survival assay, DMS 114; assay type: cell-based, human; details: 0.03-3 μg/ml, 48 hours
Experimental: The NCI anti-cancer drug screen model was adopted to test anti-cancer effect of the exemplary compounds from Example 1. The isolated compound 1 from Example 1 was added into the culture media of human lung-cancer cells, A549, NCI-H460, CL1-0, CL1-5 or DMS 114, to test for tumor cell survival (either by MTT assay or colony formation assay). Compounds 4, 5, 6, and 7 were used in MTT assay against A549.
A549, CL1-0, and CL1-5 cells are human lung adenocarcinoma cell lines. CL1-0 cells are minimally invasive sub-lines with low migration. CL1-5 cell line, on the other hand, is highly invasive with high migration ability. The NCI-H460 cell line is derived from human large cell lung cancer, which is one of the major types of non-small cell lung carcinoma. DMS 114 is small cell lung cancer cell line, and was obtained from the American Type Culture Collection (Manassas, Va.).
MTT assay is commonly used to determine cell proliferation, percent of viable cells, and cytotoxicity. […]
To each of the 96 well plates containing A549, NCI-H460, CL1-0, CL1-5, DMS 114 or BEAS-2B, 0.03, 0.1, 0.3, 1 and 3 μg/ml of compound 1 were add. […] The survival rate of cells was calculated based on the measurement of absorption at the 570 nm wavelength by enzyme immunoassay analyzer.

A549 [3] = test: In vitro cancer cell migration assay; assay type: cell-based, human; details: 0.1, 0.3 or 1 μg/ml
A549 [4] = test: Colony formation assay, A549; assay type: cell-based, human; details: 0.3 μg/ml, 14-21 days
A549 [5] = test: Apoptosis analysis by flow cytometry, A549; assay type: cell-based, human; details: after 48 hours treatment, 0.1-1 μg/ml
CL1-5 [6] = test: Apoptosis analysis by flow cytometry, CL1-5; assay type: cell-based, human; details: after 72 hours treatment, 0.1-1 μg/ml

## COC1=C(OC)C(O)C(C/C=C(\C)CC/C=C(\C)CCC=C(C)C)C(C)C1=O (centres unmarked) [Compound 1, 4-hydroxy-2,3-dimethoxy-6-methyl-5-(3,7,11-trimethyldodeca-2,6,10-trienyl)cyclohex-2-enone]
CL1-5 [1]
  CL1-5 cell invasion ability (FIG. 8): significantly decreased
A549-eGFP cells
  Tumor size / lung tumor growth (FIG. 9): grew significantly smaller and slower than the control group; also recorded: effectively inhibits lung tumor growth
[2]
  Improvement over lung cancer in patients: show improvement over lung cancer
  Survival and quality of life of patients: live longer with better quality of life
[2]; patients
  Growth of non-small cell lung tumors and/or their metastases: prevents the growth of, and shrinks
  Worsening of non-small cell lung cancer: helps to slow the worsening
DMS 114
  Toxicity to small cell lung cancer cell line DMS 114 (cell viability rate, FIG. 1B): the higher concentrated of compound 1, the higher toxic
A549 [3]
  A549 cell migration ability (FIG. 7): significantly decreased
A549 [4]
  A549 cell colony forming ability: significantly reduced
A549 [5]
  A549 cell survival rate (apoptosis analysis, FIG. 5): decreased
CL1-5 [6]
  CL1-5 survival rate (apoptosis analysis, FIG. 6): significantly decreased
